Experiment: Anti-fog (hot fog) test of additive as coating on polycarbonate plaque held over 50° C. water
[1] = salts and nonionic surfactants as coating on polycarbonate, over water at 50° C.
[2] = 3M anti-static additive coated on polycarbonate plaque, coated side down over water at 50° C., time until visible fog
[3] = coating on polycarbonate, over water at 50° C., perfluorinated vs aliphatic tail

Row | Molecule | Fog free time as coating [2] | also measured
1 | CCCCCCCS(=O)(=O)[O-].CCCC[P+](CCCC)(CCCC)CCCC [Example 4, H3C(CH2)6SO3^−+P(C4H9)4] |  | Fog free time as coating [1]: >60 s
2 | CCCC[N+](CCCC)(CCCC)CCCC.O=S(=O)([N-]S(=O)(=O)C(F)(F)F)C(F)(F)F [CE 7, (C4H9)4N^+−N(SO2CF3)2] | <1 s | 
3 | CCCC[N+](C)(CCCC)CCCC.O=S(=O)([O-])C(F)(F)C(F)(F)C(F)(F)C(F)(F)F [CE 6, (C4H9)3N^+CH3^−O3SC4F9] | <1 s | 
4 | CCCCS(=O)(=O)[O-].CCCC[P+](CCCC)(CCCC)CCCC [Example 3, H3C(CH2)3SO3^−+P(C4H9)4] |  | Fog free time as coating [3]: 22 s
5 | CC[N+](CC)(CC)CC.O=S(=O)([O-])C(F)(F)F [CE 3, (CH3CH2)4N^+−O3SCF3] | 6 s | 
6 | CCCC[N+](CCCC)(CCCC)CCCC.O=S(=O)([O-])C(F)(F)F [CE 4, (C4H9)4N^+−O3SCF3] | 3 s | 
7 | H3C(CH2)11(C6H4)SO3^−+P(C4H9)4 [Example 5] |  | Fog free time as coating [1]: >60 s
8 | CCCC[P+](CCCC)(CCCC)CCCC.O=S(=O)([O-])C(F)(F)C(F)(F)C(F)(F)C(F)(F)F [CE 8, F3C(CF2)3SO3^−+P(C4H9)4] |  | Fog free time as coating [3]: <1 s
9 | CCCCCCCC[N+](C)(C)CCO.O=S(=O)([O-])C(F)(F)F [Example 1, C8H17N(CH3)2(CH2CH2OH)^+−O3SCF3] | >60 s | 
10 | C8H17N(CH3)2(CH2CH2OH)^+−N(SO2SCF3) [CE 2] | 11 s | 
11 | CC[N+](CC)(CC)CC.O=S(=O)([N-]S(=O)(=O)C(F)(F)F)C(F)(F)F [CE 5, (CH3CH2)4N^+−N(SO2SCF3)] | <1 s | 
12 | C8H17N(CH3)2(CH2CH2OH)^+−O3SC4F9 [Example 2] | >60 s | 

From US20050140051A1, “Method for making fog resistant thermoplastic articles and articles made therefrom” (priority 2003, published 2005)
